Reference: patent US20260256870A1, “SKIN COMPOSITION” (Eaderm Co., Ltd., priority 2019, published 2026)
At least one structure is not confirmed: it was looked up by name or label, or the drawing left a doubt.

Tests used:
[1] = test system: SDS-induced skin roughness, medial forearm; test: Human skin roughness induced by 10% SDS (Example 18); format: in vivo; conditions: apocynin 200 μM, ebselen 0.25%, celecoxib 2%
Description: Two subjects were administered with substances that promote the self-renewal ability of epidermal stem cells (apocynin, ebselen, and celecoxib) using a test of skin roughness induced by 10% sodium lauryl sulfate (SDS) solution (a test that serves as a standard for chemical-induced skin damage in humans), and the effect of the skin roughness-preventing or -ameliorating agent in improving skin roughness was evaluated. Six 1.5-cm square areas were placed on the subject's medial forearm, and each was subjected to the treatments below. • SDS non-treated (70% ethanol treatment) group • SDS treatment+solvent (50% ethanol/PBS) application group. • SDS treatment+apocynin (200 μM) solution application group • SDS treatment+ebselen (0.25%) solution application group. • SDS treatment+celecoxib (2%) solution application group A cotton ball permeated with 500 μL of 10% SDS solution (dissolved in 70% ethanol) was applied to the test area for 30 minutes each on day 0 and day 1. Apocynin was applied on day 0 before SDS treatment, applied after treatment, and then applied to the test area once daily until day 9. The TEWL at each test area was measured before and after SDS treatment, and daily from day 1 to day 7. For each area, the TEWL value before SDS treatment was subtracted from the TEWL value on the measurement day, and this value was defined as “ΔTEWL”, and this value was used for evaluation. The test area was photographed with a digital camera and with PRIMOS-CR (Canfield Scientific, Inc., USA, Integral Corporation), a high-resolution three-dimensional image analyzer. For the PRIMOS images, the Primos OMC3_22 software was used to measure the degree of skin roughness in terms of “Ry (maximum height)” and “Rz (ten-point average roughness)”, which are parameters representing surface roughness in the height direction. For each site, the value obtained by subtracting the Rz or Ry value of the SDS non-treated control from the Rz or Ry value on the measurement day was defined as “ΔRz” and “ΔRy”, and these values were used for evaluation.

COL17A1 = COL17A1 expression in human epidermal keratinocytes by high content imaging (HCS); format: cell-based; conditions: in vitro, HCS (FIG. 15)
Description: The present inventors further searched for substances that induce or maintain the expression of COL17A1. Human epidermal keratinocytes were seeded in 384-well plates, cultured for 48 hours after addition of reagents, immunostained with an anti-COL17A1 antibody and a fluorescently labeled secondary antibody, and then the fluorescence intensity per cell was detected using a high content imaging system (HCS: High Content Screening). In addition to cell counting with DAPI, the expression level of COL17A1 was quantified.

[2] = test system: human epidermal keratinocytes; test: Colony formation assay using human epidermal keratinocytes; format: cell-based
Description: To test whether COL17A1-mediated SCD maintains clonal proliferation of epidermal stem cell clones, the present inventors used a colony formation assay, which is an in vitro assay said to be the gold standard for assessing the self-renewal ability of epidermal stem cells, including cells in the tail epidermis.

[3] = test system: SDS-induced skin roughness; test: Skin roughness induced by 10% SDS in hairless mice (Examples 16, 17); format: in vivo, hairless mice (HOS: HR-1); conditions: eighth day
Description: Using a skin irritation model induced by a 10% sodium lauryl sulfate (SDS) solution (a test that serves as a standard for chemical-induced skin damage), the present inventors administered a substance that promotes the competitive self-renewal ability of epidermal stem cells (apocynin) and evaluated the effect of the skin roughness-preventing or -ameliorating agent in improving skin roughness. After acclimation of hairless mice (HOS: HR-1) to the experimental environment, the mice were divided into the three groups below, so that the body weight values were nearly uniform. • SDS non-treated group (n=2) • SDS treatment+solvent application group (n=4) • SDS treatment+200 μM apocynin application group (n=4) On the back of hairless mice, a cotton ball soaked in 500 μL of 10% SDS solution (dissolved in 70% ethanol) was applied for 30 min on days 1, 2, 3, and 4. Apocynin was applied to the back every day from the day before the experiment until day 4. For each group of mice on the third day after the start of the experiment, TEWL was measured at specific sites on the back (two sites on the left side and right side symmetrically from the center of the spine) as described above. On the eighth day, the images were taken by PRIMOS-CR (Canfield Scientific, Inc., Integral Corporation), a high-resolution 3D image analysis system. […] Using a skin irritation model induced by 10% sodium lauryl sulfate (SDS) solution, the present inventors administered a substance that promotes the competitive self-renewal ability of epidermal stem cells (ebselen) and evaluated the effect of the skin roughness-preventing or -ameliorating agent in improving skin roughness. […] For each group of mice on the eighth day after the start of the experiment, TEWL was measured at specific sites on the back (two sites on the left side and right side symmetrically from the center of the spine) as described above. […]

[4] = surface of the back, compared to the solvent-applied control group

Cc1ccc(-c2cc(C(F)(F)F)nn2-c2ccc(S(N)(=O)=O)cc2)cc1 [Celecoxib]
skin roughness (analysis of skin texture from high-resolution photographs) [1]: significantly reduced | ΔRy [1]: significantly decreased | ΔRz [1]: significantly decreased | ΔTEWL [1]: significantly decreased

O=c1c2ccccc2[se]n1-c1ccccc1 [Ebselen]
COL17A1 expression / amount of COL17A1 in cultured keratinocytes compared to the control (COL17A1): significantly increased | area of colonies per well ([2]; compared to the control (FIG. 16)): significantly increased | number of colonies ([2]; compared to the control, n=3 wells (FIG. 13, FIG. 16)): significantly increased | skin roughness (analysis of skin texture from high-resolution photographs) [1]: significantly reduced | ΔRy [1]: significantly decreased | ΔRz [1]: significantly decreased | ΔTEWL [1]: significantly decreased | TEWL on the back ([3]; ebselen, compared to the solvent-applied control group (FIG. 30)): significantly lower | Ra (arithmetic mean roughness) [3, 4]: significantly reduced | Rz (ten-point average roughness) [3, 4]: significantly reduced
